# Measured values: patent publication US4446047A, “Pleochroic anthraquinone dyes” (Imperial Chemical Industries PLC, priority 1981, dated 1984)
# At least one structure is not confirmed: it was looked up by name or label, or the drawing left a doubt.
# How the values were obtained:
# [1] = Order parameter in liquid crystal medium E43; assay type: physicochemical; conditions: E43, 20° C., Table 4
# Protocol: In order to provide maximum contrast between the two states it is important that the guest molecules adopt as closely as possible the time averaged orientation of the host, however this is achieved only to a limited degree because of random thermal fluctuations. The degree to which the orientation varies from the ideal is measured by a quantity known as the order parameter S which is given by the following equation: […]
# where cos^2 θ is a time averaged term and θ is the instantaneous angular orientation of the molecules with respect to the time averaged orientation of the host molecules.
# [2] = Absorption maximum in liquid crystal medium E43; assay type: physicochemical; conditions: E43, 20° C., Table 4
smiles,measurement,setting,value
"CC(CCc1cc(Sc2ccccc2)c2c(c1O)C(=O)c1c(Sc3ccc(C(C)(C)C)cc3)cc(CCC(C)CC(C)(C)C)c(O)c1C2=O)CC(C)(C)C (centres unmarked) [Example 23(b), 1,5-dihydroxy-2,6-dinonyl-4-phenylthio-8-(t-butylphenylthio)anthraquinone]",Order Parameter,[1],0.79
same,λmax,[2],590 nm
